Patent US9957271B2, “Substituted bicyclic aza-heterocycles and analogues as sirtuin modulators” (GlaxoSmithKline, LLC, priority 2012, dated 2018)
At least one compound was matched to its structure with a doubt left.

Molecular target: T1, SIRT1 (Homo sapiens, UniProt Q96EB6)
T1 sequence (Q96EB6 1-747): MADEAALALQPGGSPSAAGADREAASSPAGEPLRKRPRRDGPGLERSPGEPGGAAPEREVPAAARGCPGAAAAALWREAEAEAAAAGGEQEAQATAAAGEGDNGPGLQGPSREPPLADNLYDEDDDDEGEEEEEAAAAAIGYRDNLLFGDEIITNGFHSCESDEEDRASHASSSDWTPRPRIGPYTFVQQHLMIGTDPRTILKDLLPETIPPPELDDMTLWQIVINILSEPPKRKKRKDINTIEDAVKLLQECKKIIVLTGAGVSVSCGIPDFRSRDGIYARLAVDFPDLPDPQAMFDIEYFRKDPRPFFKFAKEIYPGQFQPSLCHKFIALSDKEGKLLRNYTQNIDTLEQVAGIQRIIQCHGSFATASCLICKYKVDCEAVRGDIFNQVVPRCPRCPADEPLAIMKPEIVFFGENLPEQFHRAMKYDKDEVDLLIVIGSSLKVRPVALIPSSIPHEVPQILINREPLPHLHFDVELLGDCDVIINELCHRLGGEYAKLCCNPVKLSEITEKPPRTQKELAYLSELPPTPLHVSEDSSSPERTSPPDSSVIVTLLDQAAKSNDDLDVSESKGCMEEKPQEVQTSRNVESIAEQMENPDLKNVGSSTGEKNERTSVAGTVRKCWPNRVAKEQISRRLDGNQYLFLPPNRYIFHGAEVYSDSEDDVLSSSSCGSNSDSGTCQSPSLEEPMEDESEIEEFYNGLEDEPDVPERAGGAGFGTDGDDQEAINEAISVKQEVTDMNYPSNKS
Test: Trp mass spectrometry assay of SIRT1 activity
Format: biochemical
Details: Trp assay; concentration giving 150% activation of SIRT1
Excerpt: Mass spectrometry based assays were used to identify modulators of SIRT1 activity. The TAMRA based assay utilized a peptide having 20 amino acid residues as follows: Ac-EE-K(biotin)-[…](Ac)NleSTEG-K(5TMR)-EE-NH2 (SEQ ID NO: 1), wherein K(Ac) is an acetylated lysine residue and Nle is a norleucine. The peptide was labeled with the fluorophore 5TMR (excitation 540 nm/emission 580 nm) at the C-terminus. The sequence of the peptide substrate was based on p53 with several modifications. In addition, the methionine residue naturally present in the sequence was replaced with the norleucine because the methionine may be susceptible to oxidation during synthesis and purification. The Trp based assay utilized a peptide having an amino acid residues as follows: Ac-R-H-K-K(Ac)-W-NH2 (SEQ ID NO: 2).
The Trp mass spectrometry assay was conducted as follows. 0.5 μM peptide substrate and 120 μM βNAD^+ were incubated with 10 nM SIRT1 for 25 minutes at 25° C. in a reaction buffer (50 mM HEPES pH 7.5, […], 1 mM DTT, 0.05% BSA). The SIRT1 protein was obtained by cloning the SirT1 gene into a T7-promoter containing vector, which was then expressed in BL21(DE3) bacterial cells and purified as described in further detail below. Test compound was added at varying concentrations to this reaction mixture and the resulting reactions were monitored. After the 25 minute incubation with SIRT1, 10 μL of 10% formic acid was added to stop the reaction. The resulting reactions were sealed and frozen for later mass spec analysis. The relative SIRT1 activity was then determined by measuring the amount of O-acetyl-ADP-ribose (OAADPR) formed (or, alternatively, the amount of deacetylated Trp peptide generated) by the NAD-dependent sirtuin deacetylation reaction in the presence of varying concentrations of the test compound versus control reactions lacking the test compound. The degree to which the test agent activated deacetylation by SIRT1 was expressed as EC1.5 (i.e., the concentration of compound required to increase SIRT1 activity by 50% over the control lacking test compound), and Percent Maximum Activation (i.e., the maximum activity relative to control (100%) obtained for the test compound).
A control for inhibition of sirtuin activity was conducted by adding 1 μL of 500 mM nicotinamide as a negative control at the start of the reaction (e.g., permits determination of maximum sirtuin inhibition). A control for activation of sirtuin activity was conducted using 10 nM of sirtuin protein, with 1 μL of DMSO in place of compound, to determine the amount of deacetylation of the substrate at a given time point within the linear range of the assay. This time point was the same as that used for test compounds and, within the linear range, the endpoint represents a change in velocity.
For the above assay, SIRT1 protein was expressed and purified as follows. The SirT1 gene was cloned into a T7-promoter containing vector and transformed into BL21(DE3). The protein was expressed by induction with 1 mM IPTG as an N-terminal His-tag fusion protein at 18° C. overnight and harvested at 30,000×g. Cells were lysed with lysozyme in lysis buffer (50 mM Tris-HCl, 2 mM Tris[2-carboxyethyl]phosphine (TCEP), 10 μM ZnCl2, 200 mM NaCl) and further treated with sonication for […] for complete lysis. The protein was purified over a Ni-NTA column (Amersham) and fractions containing pure protein were pooled, concentrated and run over a sizing column (Sephadex S200 26/60 global). The peak containing soluble protein was collected and run on an Ion-exchange column (MonoQ). Gradient elution (200 mM-500 mM NaCl) yielded pure protein. This protein was concentrated and dialyzed against dialysis buffer (20 mM Tris-HCl, 2 mM TCEP) overnight. The protein was aliquoted and frozen at −80° C. until further use.

| Compound | Trp EC1.5 (μM) |
| --- | --- |
| CC1(C)CCN(c2ccc3ncc(C(=O)Nc4ccncc4F)n3n2)C1 [Compound 960] | A (EC1.5<1 μM) |
| CC1(C)CCN(c2ccc3ncc(C(=O)Nc4cccnc4)n3n2)C1 [Compound 953] | A (EC1.5<1 μM) |
| O=C(Nc1cccnc1)c1cnc2ccc(N3CC[C@H](O)C3)nn12 [Compound 982] | B (EC1.5 1-25 μM) |
| O=C(Nc1ccccn1)c1cnc2ccc(N3CCCC3C(F)(F)F)nn12 (stereo not drawn) [Compound 974] | A (EC1.5<1 μM) |
| CC1(C)CCN(c2ccc3ncc(C(=O)Nc4cccnn4)n3n2)C1 [Compound 955] | B (EC1.5 1-25 μM) |
| CC1CCN(c2ccc3ncc(C(=O)Nc4ccc(F)cn4)n3n2)C1 (stereo not drawn) [Compound 977] | B (EC1.5 1-25 μM) |
| CC1(C)CCN(c2ccc3ncc(C(=O)Nc4ccccn4)n3n2)C1 [Compound 952] | B (EC1.5 1-25 μM) |
| CC1(C)CCN(c2ccc3ncc(C(=O)Nc4ccncn4)n3n2)C1 [Compound 972] | B (EC1.5 1-25 μM) |
| Cc1nc2ccc(N3CCC(F)(F)C3)nn2c1C(=O)Nc1cncc(F)c1 [Compound 991] | B (EC1.5 1-25 μM) |
| O=C(Nc1ccncn1)c1cnc2ccc(N3CCC[C@H](F)C3)nn12 [Compound 993] | B (EC1.5 1-25 μM) |
| O=C(Nc1ccc(F)cn1)c1cnc2ccc(N3CCC(F)(F)CC3)nn12 [Compound 962] | B (EC1.5 1-25 μM) |
| CC1CCN(c2ccc3ncc(C(=O)Nc4ccncn4)n3n2)C1 (stereo not drawn) [Compound 992] | C (EC1.5>25 μM) |
| O=C(Nc1ccc(F)cn1)c1cnc2ccc(N3CCC[C@H](F)C3)nn12 [Compound 988] | B (EC1.5 1-25 μM) |
| O=C(Nc1ccncn1)c1cnc2ccc(N3CCC(F)(F)CC3)nn12 [Compound 964] | B (EC1.5 1-25 μM) |
| O=C(Nc1ccccn1)c1cnn2ccc(N3CCCCC3C(F)(F)F)nc12 (stereo not drawn) [Compound 957] | A (EC1.5<1 μM) |
| O=C(Nc1ccc(F)cn1)c1cnc2ccc(N3CC[C@H](O)C3)nn12 [Compound 983] | B (EC1.5 1-25 μM) |
| CN1CCN(c2ccc3ncc(C(=O)Nc4ccncc4F)n3n2)CC1 [Compound 949] | C (EC1.5>25 μM) |
| Cc1nc2ccc(N3CCCC(F)(F)C3)nn2c1C(=O)Nc1cccnn1 [Compound 994] | A (EC1.5<1 μM) |
| CC1CCN(c2ccc3ncc(C(=O)Nc4cccnc4)n3n2)C1 (stereo not drawn) [Compound 976] | B (EC1.5 1-25 μM) |

Same assay, conditions: concentration of test compound that results in 150% activation of SIRT1; Trp peptide substrate

| Compound | Trp EC1.5 (μM) |
| --- | --- |
| C[C@@H]1CN(c2ccc3ncc(C(=O)Nc4cccnc4)n3n2)CCO1 [Compound 1002] | B (EC1.5 1-25 μM) |
| Cc1nn2ccc(N3CCC[C@H]3C(F)(F)F)nc2c1C(=O)Nc1cccnc1 [Compound 1047] | A (EC1.5<1 μM) |
| COc1nccc(NC(=O)c2cnn3ccc(N4CCC[C@@H]4C(F)(F)F)nc23)n1 [Compound 1080] | B (EC1.5 1-25 μM) |
| C[C@H]1CCCN1c1ccc2ncc(C(=O)Nc3cccnc3)n2n1 [Compound 1056] | B (EC1.5 1-25 μM) |
| O=C(Nc1cccnc1)c1cnn2ccc(N3CCC[C@H]3C(F)(F)F)nc12 [Compound 1026] | A (EC1.5<1 μM) |
| COc1nccc(NC(=O)c2c(C)nn3ccc(N4CCC[C@H]4C(F)(F)F)nc23)n1 [Compound 1049] | A (EC1.5<1 μM) |
| Cc1nn2ccc(N3CCC[C@@H]3C(F)(F)F)nc2c1C(=O)Nc1cccc(-c2cnco2)n1 [Compound 1086] | A (EC1.5<1 μM) |
| O=C(Nc1cccnc1)c1cnn2ccc(N3CCC[C@@H]3C(F)(F)F)nc12 [Compound 1076] | B (EC1.5 1-25 μM) |
| Cc1nn2ccc(N3CCC[C@@H]3C(F)(F)F)nc2c1C(=O)Nc1ccccn1 [Compound 1070] | B (EC1.5 1-25 μM) |
| COc1nccc(NC(=O)c2cnc3ccc(N4CCC[C@@H]4C)nn23)n1 [Compound 1051] | C (EC1.5>25 μM) |
| C[C@H]1CCCN1c1ccc2ncc(C(=O)Nc3cnccn3)n2n1 [Compound 1054] | C (EC1.5>25 μM) |
| O=C(Nc1cccc(-c2cnco2)n1)c1cnn2ccc(N3CCC(C(F)(F)F)CC3)nc12 [Compound 1083] | A (EC1.5<1 μM) |
| Cc1nn2ccc(N3CCC[C@@H]3C(F)(F)F)nc2c1C(=O)Nc1cc(-c2cnco2)ccn1 [Compound 1087] | A (EC1.5<1 μM) |
| O=C(Nc1cncc(F)c1)c1cnn2ccc(N3CCC[C@@H]3C(F)(F)F)nc12 [Compound 1089] | B (EC1.5 1-25 μM) |
| O=C(Nc1cncc(F)c1)c1cnn2ccc(N3CCCCC3C(F)(F)F)nc12 (stereo not drawn) [Compound 1010] | A (EC1.5<1 μM) |
| C[C@@H]1CN(c2ccc3ncc(C(=O)Nc4cncc(F)c4)n3n2)CCO1 [Compound 1004] | B (EC1.5 1-25 μM) |
| CC1CCCN1c1ccn2ncc(C(=O)Nc3ccncn3)c2n1 (stereo not drawn) [Compound 1042] | B (EC1.5 1-25 μM) |
| Cc1nn2ccc(N3CCC[C@H]3C(F)(F)F)nc2c1C(=O)Nc1ccccn1 [Compound 1035] | A (EC1.5<1 μM) |
| O=C(Nc1nc2c(s1)CCCC2)c1cnc2ccc(N3CCCC3C(F)(F)F)nn12 (stereo not drawn) [Compound 1096] | A (EC1.5<1 μM) |
| O=C(Nc1ccccn1)c1cnn2ccc(N3CCC[C@H]3C(F)(F)F)nc12 [Compound 1029] | A (EC1.5<1 μM) |
| O=C(Nc1ccncn1)c1cnn2ccc(N3CCC(C(F)(F)F)CC3)nc12 [Compound 1063] | A (EC1.5<1 μM) |
| O=C(Nc1cccnn1)c1cnn2ccc(N3CCCC3C(F)(F)F)nc12 (stereo not drawn) [Compound 1022] | B (EC1.5 1-25 μM) |
| Cn1cc2ccc(NC(=O)c3cnc4ccc(N5CCCC5C(F)(F)F)nn34)cc2n1 (stereo not drawn) [Compound 1092] | A (EC1.5<1 μM) |
| Cc1nc2ccc(N3CCC[C@H]3C(F)(F)F)nn2c1C(=O)Nc1cncc(F)c1 [Compound 1017] | A (EC1.5<1 μM) |
| O=C(Nc1cccnn1)c1cnn2ccc(N3CCC(C(F)(F)F)C3)nc12 (stereo not drawn) [Compound 1014] | A (EC1.5<1 μM) |
| O=C(Nc1cnccn1)c1cnn2ccc(N3CCC[C@@H]3C(F)(F)F)nc12 [Compound 1078] | B (EC1.5 1-25 μM) |
| Cc1nn2ccc(N3CCC[C@@H]3C(F)(F)F)nc2c1C(=O)Nc1cncc(F)c1 [Compound 1069] | A (EC1.5<1 μM) |
| O=C(Nc1cc(-c2cnco2)ccn1)c1cnc2ccc(N3CCCC3C(F)(F)F)nn12 (stereo not drawn) [Compound 1098] | A (EC1.5<1 μM) |
| Cc1nc(NC(=O)c2c(C)nn3ccc(N4CCC[C@@H]4C(F)(F)F)nc23)sc1C [Compound 1082] | A (EC1.5<1 μM) |
